Values from PubChem BioAssay AID686943 (Drosophila RNAi Screening Center, 2013)
Assay: 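Search across the genome for regulators of signalling from receptor tyrosine kinase to ERK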 (primary screen). System: Drosophila S2R+ haemocyte-like cells expressing YFP-tagged ERK (Rolled). Knock-down reagent: long dsRNA against Drosophila genes. Treatment: insulin stimulation versus unstimulated cells; dose and duration not given. Measurement: 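Antibody staining for doubly phosphorylated ERK divided by ERK-YFP signal, as plate z-scores, in insulin-treated and untreated cells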. Direction: replicate 1, z-score of dpERK with insulin and replicate 2, z-score of dpERK with insulin: higher = more active ERK per ERK-YFP after insulin.
In all, the deposit lists about 23,000 reagents; shown is an unselected part of those that have a named target and a result. 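Extra replicates exist only for a retested subset of genes; insulin dose and duration not given; both raised and lowered dpERK matter.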 A plus sign joins genes that one reagent is predicted to hit. Further read-outs or replicates are left out here. Not stated in the record: the amount of reagent, the time to read-out.

target gene,amplicon,"replicate 1, z-score of dpERK with insulin","replicate 2, z-score of dpERK with insulin"
CG32454,DRSC11652,-0.29,-0.3
CG17108,DRSC02576,0.21,0.67
CG17108,DRSC22214,-1.57,0.06
daw,DRSC00479,1.59,1.58
CG33282,DRSC00422,0.78,-0.38
PolE1,DRSC16112,0.3,0.85
CG13931,DRSC08400,1.02,0.87
Nsf2,DRSC22104,-0.65,0.21
Rbp4,DRSC16818,0.18,1.27
Trf5,DRSC00412,-0.85,-0.67
mod(mdg4) + pre-mod(mdg4)-Z + pre-mod(mdg4)-T,DRSC13477,-1.47,0.91
mod(mdg4) + pre-mod(mdg4)-Z + pre-mod(mdg4)-T,DRSC17001,0.34,0.88
CCT6,DRSC20095,-0.14,0.02
Zip42C.2,DRSC05004,1.66,0.01
hbs,DRSC07627,0.83,0.04
CG15927,DRSC19742,-0.46,0.02
Vps4,DRSC19338,-2.89,-2.84
EndoA,DRSC14775,-0.17,0
CG8476,DRSC16426,-0.11,0.31
CG32182,DRSC09508,0.89,0.21
ChLD3,DRSC02640,0.82,-0.12
Pka-R1,DRSC11674,-4.09,-3.28
Pka-R1,DRSC11875,1.19,-0.43
Ifrd1,DRSC00415,-0.47,-0.76
Ifrd1,DRSC00566,-0.5,-0.8
Cpr65Ec,DRSC11025,-0.84,-0.15
CG43689,DRSC18046,-0.98,-0.78
CG43689,DRSC18383,-2.87,-3.36
CG43689,DRSC22467,-0.21,0.08
boly,DRSC21629,0.16,-0.22
CG10163,DRSC09710,0.02,0.44
CG13066,DRSC09949,0.06,0.19
CG11444,DRSC17784,0.72,1.46
CG43693,DRSC09086,0.43,0.4
CG43693,DRSC10625,0.08,-0.96
CG32523,DRSC20510,0.42,0.11
pic,DRSC16639,-2.24,-2.04
mthl9,DRSC08506,-0.15,-0.09
Osi13,DRSC12281,-0.64,1.27
p38c,DRSC22939,-0.09,0.3
Pos,DRSC15415,-0.46,-0.08
CG18568,DRSC06768,0.11,-0.03
alien,DRSC03482,-0.91,0.51
CG7639,DRSC07026,0.27,0.28
Sur,DRSC03447,-0.26,0.83
CG42834,DRSC13234,-0.57,-0.07
VepD,DRSC22318,0.29,0.43
beat-VI,DRSC14474,0.14,-0.04
beat-VI,DRSC14727,0.15,0.51
CG8399,DRSC07163,-0.28,-1.15
Irp-1B,DRSC16720,-0.13,0.73
Rrp47,DRSC20124,-0.54,1.24
igl,DRSC07631,-0.23,-1.66
side-IV + asRNA:CR17025,DRSC14833,3.73,0.06
side-IV + asRNA:CR17025,DRSC15168,-0.72,0.2
Argp,DRSC16510,0.23,0.16
CG1492,DRSC19605,-0.32,-0.62
